# Source: US6441043B1, “Glyoxylic acid amides” (priority 1997, dated 2002)
# Some results were stated once for a whole list of compounds, not compound by compound.
# How the values were obtained:
# Phytophthora infestans = format: in vivo; settings: application rate 50 g/ha; protective spray on young tomato plants; evaluation 3 days after inoculation; 100% = no infection
# Plasmopara viticola = assay: Plasmopara test (grapevine)/protective; format: in vivo; settings: application rate 50 g/ha; protective spray on young grapevine plants; evaluation 6 days after inoculation; 100% = no infection
SMILES,efficacy (Phytophthora infestans) [%],efficacy (Plasmopara viticola) [%]
CCOc1ccc(CCNC(=O)C(=NOC)c2ccc(C)cc2)cc1OC [Example 15],≥ 80,≥ 80
CCOc1ccc(CCNC(=O)C(=NOC)c2ccc(Br)cc2)cc1OC (mixture of isomers) [Example 10],≥ 80,≥ 80
CCOc1ccc(CCNC(=O)C(=NOC)c2ccc(CC)cc2)cc1OC (mixture of isomers) [Example 17],≥ 80,≥ 80
CCOc1ccc(CCNC(=O)C(=NOC)c2ccc(Cl)cc2)cc1OC [Example 11],≥ 80,≥ 80
